{"source": "patent US4235881A", "about": "“Method for producing high potency factor VIII” (priority 1978, dated 1980)", "key": {"[1]": {"tested_on": "Factor VIII procoagulant activity (VIII-AHF)", "assay": "Factor VIII procoagulant activity (VIII-AHF) in plasma after intravenous infusion in healthy volunteers", "type": "in vivo, human", "details": "for Factor VIII-AHF: mean ± SEM"}, "[2]": {"tested_on": "Factor VIII-related antigen (VIII-AGN)", "assay": "Factor VIII-related antigen (VIII-AGN) in plasma by Laurell method after intravenous infusion in healthy volunteers", "type": "in vivo, human", "details": "mean ± SEM"}, "[3]": {"details": "time 0 min (before infusion), 10 μg i.v., five healthy males"}, "[4]": {"details": "time 7 1/2 min (during saline pre-infusion), 10 μg i.v."}, "[5]": {"details": "time 15 min (onset of infusion), 10 μg i.v."}, "[6]": {"details": "time 30 min, 10 μg i.v. infused over 15 min from 15 min"}, "[7]": {"details": "time 45 min, 10 μg i.v. infused over 15 min from 15 min"}, "[8]": {"details": "time 60 min, 10 μg i.v. infused over 15 min from 15 min"}}, "note": "At least one peptide structure holds a part that was inferred or is arguable (an end, a ring closure or a residue). Starred links: 1 amine or outer side, 2 acyl side, 3 side chain; linkers in the order of their positions; H or OH if unused. Positions of bridges follow the written chain, without caps; N, C: chain ends. Non-standard residues stand in square brackets, D forms with d. Residues, ends and D or L forms follow the SMILES beside them. hCys = N[C@@H](CCS)C(=O)O; X1 = O=C(CC[*:2])[*:1]"}
{"smiles": "N=C(N)NCCC[C@@H](NC(=O)[C@@H]1CCCN1C(=O)[C@@H]1CCSCCC(=O)N[C@@H](Cc2ccc(O)cc2)C(=O)N[C@@H](Cc2ccccc2)C(=O)N[C@@H](CCC(N)=O)C(=O)N[C@@H](CC(N)=O)C(=O)N1)C(=O)NCC(N)=O", "note": "[dCDAVP, 1-deamino-6-carba-8-D-arginine vasopressin] (YFQN[hCys]P[dR]G-NH2; linker N-5 via X1)", "values": [{"measurement": "Factor VIII blood levels", "setting": "[1]; administration to the volunteers, 10 μg i.v., result in words", "value": "substantial increase"}, {"measurement": "Factor VIII-AHF", "setting": "[1]; [3]", "value": "0.99 ± 0.11", "unit": "international units"}, {"measurement": "Factor VIII-AHF", "setting": "[1]; [4]", "value": "0.97 ± 0.15", "unit": "international units"}, {"measurement": "Factor VIII-AHF", "setting": "[1]; [5]", "value": "1.03 ± 0.08", "unit": "international units"}, {"measurement": "Factor VIII-AHF", "setting": "[1]; [6]", "value": "1.65 ± 0.11", "unit": "international units"}, {"measurement": "Factor VIII-AHF", "setting": "[1]; [7]", "value": "2.08 ± 0.16", "unit": "international units"}, {"measurement": "Factor VIII-AHF", "setting": "[1]; [8]", "value": "1.99 ± 0.16", "unit": "international units"}, {"measurement": "Factor VIII-AGN", "setting": "[2]; [3]", "value": "126 + 14% of standard plasma"}, {"measurement": "Factor VIII-AGN", "setting": "[2]; [4]", "value": "129 ± 15% of standard plasma"}, {"measurement": "Factor VIII-AGN", "setting": "[2]; [5]", "value": "135 ± 21% of standard plasma"}, {"measurement": "Factor VIII-AGN", "setting": "[2]; [6]", "value": "150 ± 19% of standard plasma"}, {"measurement": "Factor VIII-AGN", "setting": "[2]; [7]", "value": "215 ± 29% of standard plasma"}, {"measurement": "Factor VIII-AGN", "setting": "[2]; [8]", "value": "214 ± 20% of standard plasma"}]}
